The other results are listed elsewhere or left out.
B1: il10ra_site1_sap_21_mot_0eddeacbb14b769e73e254714f31e2f9_0001_af2_000000203_0001_37_51_H_._HHH_b1_06326_0001_0000400030_0000001_0_0001_af2pred_dldesign_0_af2pre … (protein)
chain: SPREEALREVAKRAGIPEAVFEYMREQAEKDAGGDPEATLEALARRLSLLAPPELQPALAAVLAA
B2: il10ra_site1_sap_27_mot_HHH_b2_02354_af2_000000157_0001_40_56_H_._HHH_b1_02176_0001_0000100006_0000002_0_0001 (protein)
chain: SSSSDEEERLKELLEELEELLEEGDDERFLKVAQEILRLAFQLGDEEALQAVWRLAKRSRSSSSS
B3: il10ra_site1_normal_mot_HHH_b2_05797_000000294_0001_1_19_H_._HHH_b1_02457_0001_0000300027_0000001_0_af2pred_0001 (protein)
chain: SSSSDEEVRELIEILEELREHVSPEEEELIEATLRVAKVLLEAGDPEAARFLLKAAIEAIRSSSS
B4: il10ra_site1_normal_mot_HHH_b2_02497_000000220_0001_1_20_H_._d4a0d7e14d3257bbacf2cba0c18c7893_0001_1_af2_0001_0000100001_0000001_0 (protein)
chain: DEDYELLRIIIELARDPELQRLLQLLIQFWFRGDPRVRELLEELEELLEQGDPEEAAELLKEFLK
B5: il10ra_site1_normal_mot_HHH_b2_08143_000000031_0001_38_55_H_._HHH_b2_07298_0001_0000200010_0000002_0_af2pred_0001 (protein)
chain: SSSSSSEEEVHARAALWFARLIEDPEAKRILLEIAEEFAEKAGDEELLEEIEEELEKVGSSSSSS
B6: il10ra_site1_sap_14_mot_HHH_b2_02375_000000081_0001_1_20_H_._HHH_b2_02047_0001_0000200016_0000002_0_0001 (protein)
chain: SSSSSSEEEALREAYELIERAFEIEDEREVRELLEEALELAEEANNWALQFAIRHALRSLSSSSS
B7: il10ra_site1_normal_mot_HHH_b1_00999_000000080_0001_41_55_H_._HHH_b2_03336_0001_0000100008_0000002_0 (protein)
chain: SSSSSSDVEELLEEARELAEEGDPQWARVLAEAVRHAYENGDEELLREIWELVKEIGHSSSSSSS
B8: il10ra_site1_sap_13_mot_HHH_b2_02053_af2_000000006_0001_3_19_H_._HHH_b1_06660_af2_0001_0000100004_0000001_0_0001 (protein)
chain: SLEELLRELLEELGVPPERIRLLELAFRRQRKQGSPPEDVLRALLFLLHAAGDPAREAVRELLER
B9: il10ra_site1_sap_15_mot_HHH_b2_07145_000000158_0001_24_40_H_._HHH_b2_04542_0001_0000100009_0000001_1_0001_af2pred_0001 (protein)
chain: SSSSDVEERVEELAEEVRELLENGNPEEALQVIREIVRLAAEHNDEEALRIARELLKLVFSSSSS
B10: il10ra_site1_normal_mot_HHH_b2_00033_000000036_0001_41_54_H_._HHH_b2_02401_0001_0000100019_0000002_0 (protein)
chain: SSSSSDEEEVKELIREAEELRERGNPEEAMRVLIEALQLAHRSGNEELFQELWEFAKKLASSSSS
B11: il10ra_site1_normal_mot_HHH_b2_03651_000000190_0001_21_37_H_._HHH_b2_07896_0001_0000100001_0000002_0_af2pred_0001 (protein)
chain: SSSSSDEEYEEEVEELLEEAKKIEDEHEASRVLLEALRLAYELGNPELLQLVFEVIRRVISSSSS
B12: il10ra_site1_sap_20_mot_HHH_b1_07256_000000044_0001_1_17_H_._HHH_b2_06732_af2_0001_0000300014_0000001_0_0001 (protein)
chain: SSSSDAYEAVERLIEEAVEAIRNRDDELLERILRELEELAKEKGNQIIEFIVELLERAFEGSSSS
B13: il10ra_site1_normal_mot_HHH_b1_03260_000000175_0001_42_57_H_._HHH_b1_05644_af2_0001_0000300015_0000001_0_af2pred_0001 (protein)
chain: SSSSSEDEERIELTLRFARFLLENGDPEAARFLVEAAIELAKRNNNPELLEEAEKLEEEINSSSS
B14: il10ra_site1_sap_16_mot_HHH_b1_05704_af2_000000048_0001_1_18_H_._HHH_b1_07589_0001_0000200021_0000001_0_0001 (protein)
chain: SSSSTDESYRLAKEVIEKAIELIRNGNPEEARELLEEALEELEKLGDQIAVMQLRHLLELASSSS
B15: il10ra_site1_sap_18_mot_HHH_b2_07044_000000036_0001_1_16_H_._HHH_b2_02374_0001_0000200026_0000002_0_0001_af2pred_0001 (protein)
chain: SSSSDDVERAIEILIRAAKLAKKQGNEEVARLAIRFALALAKAANDEELLEELERILEELRSSSS
B16: il10ra_site1_normal_mot_HHH_b2_02337_000000026_0001_38_52_H_._HHH_b2_07051_0001_0000100002_0000001_0 (protein)
chain: SSSSSEEEELEEILEEIKRLYKEGDEERVLQLLQRLARLAFRLNDPEVLRELWELVQKIASSSSS
B17: il10ra_site1_normal_mot_HHH_b2_01447_af2_000000258_0001_1_20_H_._HHH_b1_01230_af2_0001_0000100002_0000002_0_af2pred_0001 (protein)
chain: SSSSSAEEVRRLIREAIELAREGDEEEAEEVLEEAQRLAEELNNPLLEWIIRSALEQLRRSSSSS
B18: il10ra_site1_sap_23_mot_HHH_b2_03708_000000000_0001_1_18_H_._HHH_b1_08343_0001_0000300038_0000001_0_0001 (protein)
chain: SSSSDLEKEIFHLLIEAYHLLQRGDEEEARELLEEAKELAEELNDPALLRAVEVLLAKLDSSSSS
B19: il10ra_site1_sap_16_mot_HHH_b1_00682_000000235_0001_1_20_H_._HHH_b1_05074_0001_0000100010_0000001_0_0001 (protein)
chain: SSSSDEEREELEELIRELEELLKNGDPERALRVIQRAIRLAFQSNDPELLRELWEVIKRHFSSSS
B20: il10ra_site1_normal_mot_HHH_b2_07144_000000289_0001_1_18_H_._HHH_b1_07702_0001_0000300014_0000001_1_af2pred_0001 (protein)
chain: SSSSSSSNAYELSREILEVLYEGDEEEAERLLKELEELAEELNDPIAKAAVEALRSALSSSSSSS
B21: il10ra_site1_normal_mot_HHH_b1_03900_000000129_0001_1_16_H_._HHH_b1_07492_af2_0001_0000500015_0000002_0 (protein)
chain: SSSSSEEEREAYRLIKRIARLLIRGNEEEAEELLRKLEELAKEVNDPALERAVEILEEALSSSSS
B22: il10ra_site1_sap_26_mot_HHH_b2_02736_000000092_0001_22_38_H_._HHH_b1_07250_0001_0000200033_0000002_0_0001 (protein)
chain: SSSSDQDRELVEAAIRLVEQLLEWGDPEAARFALWSAKLLAEEINNPELEKRLEELEEEVNSSSS
B23: il10ra_site1_sap_21_mot_HHH_b1_03900_000000129_0001_1_16_H_._HHH_b1_06247_0001_0000500016_0000002_0_0001 (protein)
chain: SSSSQEAYELSRRVIEEAVELEEEGDPEEARRLLEEALEQLEELGNPIAVLSLEHLLRLLESSSS
B24: il10ra_site1_sap_18_mot_05ca327611f5605f0dd8494b449afcbf_0001_1_000000248_0001_35_51_H_._HHH_b1_04623_0001_0000100009_0000001_0_0001 (protein)
chain: SSSSSEERRELYELLREAAELDHEGDPEEARRVLEEARELAEELNDWVILMQLRHLEKVVDSSSS

Target: il10ra, Q13651
Assay: yeast display titration

Apparent Kd, inactive:
B1 no binding seen
B2 no binding seen
B3 no binding seen
B4 no binding seen
B5 no binding seen
B6 no binding seen
B7 no binding seen
B8 no binding seen
B9 no binding seen
B10 no binding seen
B11 no binding seen
B12 > 1120 nM
B13 no binding seen
B14 no binding seen
B15 no binding seen
B16 no binding seen
B17 no binding seen
B18 no binding seen
B19 no binding seen
B20 no binding seen
B21 no binding seen
B22 no binding seen
B23 no binding seen
B24 no binding seen

As a working copy, part of the list above:
Apparent Kd, inactive:
B4 no binding seen
B5 no binding seen

Source: publication PMC10163288
